Our source for the binding values is PMC7409263.

By UniProt entry, the sequences of proteins in these tests, tags left out. Where a name states a change or a piece, a line headed by the entry shows the natural chain unless it says otherwise.
UniProt Q6GQA4: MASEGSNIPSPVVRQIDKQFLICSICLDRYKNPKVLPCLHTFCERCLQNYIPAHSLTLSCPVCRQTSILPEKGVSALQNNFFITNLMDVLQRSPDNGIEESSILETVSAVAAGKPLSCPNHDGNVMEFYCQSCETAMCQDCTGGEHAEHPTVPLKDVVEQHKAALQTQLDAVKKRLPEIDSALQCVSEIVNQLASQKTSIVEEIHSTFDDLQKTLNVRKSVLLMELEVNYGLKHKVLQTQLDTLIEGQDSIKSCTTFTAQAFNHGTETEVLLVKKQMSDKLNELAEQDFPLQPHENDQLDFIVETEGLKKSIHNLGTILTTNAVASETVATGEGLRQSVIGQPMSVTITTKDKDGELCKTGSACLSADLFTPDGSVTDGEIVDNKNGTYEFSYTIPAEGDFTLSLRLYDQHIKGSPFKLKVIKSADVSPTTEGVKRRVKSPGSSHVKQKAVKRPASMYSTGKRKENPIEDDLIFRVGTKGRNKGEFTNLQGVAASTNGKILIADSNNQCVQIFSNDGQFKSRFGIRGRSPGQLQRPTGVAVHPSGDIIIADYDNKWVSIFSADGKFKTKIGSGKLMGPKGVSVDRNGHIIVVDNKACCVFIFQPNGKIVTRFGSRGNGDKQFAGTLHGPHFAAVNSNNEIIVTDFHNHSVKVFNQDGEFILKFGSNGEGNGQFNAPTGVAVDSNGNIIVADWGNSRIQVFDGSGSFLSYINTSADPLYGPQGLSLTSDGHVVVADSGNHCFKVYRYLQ

Assay [1] deals with GST-Trim2 (Xenopus tripartite motif containing 2) (Xenopus laevis) (UniProt Q6GQA4). Put plainly: pull-down; GST-Trim2 as bait on HEK293T cells (lysate), tested for NEFL; detection not stated; only the target purified.
The target is the same in assay [2]. In words: pull-down; GST-Trim2 as bait on Xenopus embryonic lysates, tested for NEFL; detection not stated; only the target purified.
Assay [3] shares this target. In words: pull-down; 50 ug GST-Trim2 added to 1 mL (1 mg protein) lysate of HEK293T cells transfected with Flag-Alix, 1 h at 4 C, GSH-Sepharose beads, washed with IP lysis buffer, Western blot; GST alone as control; only the target purified. In general terms: In western blotting, separated proteins are transferred to a membrane and probed.

No constants are given. Whether binding was seen depends on the method and setting. Binding seen in cells or lysates may run through a third protein. For part of these data: Binding can be weak; no strength is given. For part of these data: Tags and fused reporters may be left off the sequences shown.

B1: NEFL (Neurofilament Light), from HEK293T cells (protein, UniProt P07196 1-543)
chain: MSSFSYEPYYSTSYKRRYVETPRVHISSVRSGYSTARSAYSSYSAPVSSSLSVRRSYSSSSGSLMPSLENLDLSQVAAISNDLKSIRTQEKAQLQDLNDRFASFIERVHELEQQNKVLEAELLVLRQKHSEPSRFRALYEQEIRDLRLAAEDATNEKQALQGEREGLEETLRNLQARYEEEVLSREDAEGRLMEARKGADEAALARAELEKRIDSLMDEISFLKKVHEEEIAELQAQIQYAQISVEMDVTKPDLSAALKDIRAQYEKLAAKNMQNAEEWFKSRFTVLTESAAKNTDAVRAAKDEVSESRRLLKAKTLEIEACRGMNEALEKQLQELEDKQNADISAMQDTINKLENELRTTKSEMARYLKEYQDLLNVKMALDIEIAAYRKLLEGEETRLSFTSVGSITSGYSQSSQVFGRSAYGGLQTSSYLMSTRSFPSYYTSHVQEEQIEVEETIEAAKAEEAKDEPPSEGEAEEEEKDKEEAEEEEAAEEEEAAKEESEEAKEEEEGGEGEEGEETKEAEEEEKKVEGAGEEQAAKKKD
As for B1, the binding result in assay [1] is reported as “no binding”.

B2: NEFL (Neurofilament Light), in Xenopus embryonic lysates (protein, UniProt P35616 1-544)
chain: MSSYSYDPYYTPYKRRVVESSPRVHIRSSYVSPSRTTYSPLVSTTMRRSYATSSSSSFLPSVDTMDLSQVAAISSDLKIVRTQEKVQLQDLNDRFANFIERVHELEQRNKVLEAELLLLRQKHNEPSRLRDMYEKEVRDVRLAQEEASGDRQTLRNERERLEDALRVLQGRYEEEAMSREDSEARLLDVRKEADMAALARVELEKRMDSLLDEIAFLKKVHEEELSQLQSQVQYAQVSLEVEVAKPDLSSALRDIRGQYEKLAAKNMQSAEEWFKSRFTVLTQSAARNTDAVRAAKDEMSESRRMLSAKGLEIEACRGVNEALQRQIQELEDKQSGEIAGMQDAINKLEEELRNTKSEMARYLKEYQDLLNVKMALDIEIAAYRKLLEGEETRLSFSGVGAITSGYTQSAPVFGRSAYSLQSSSYMTSRAFPTYYSSHVQEEQLDIEETIESSRAEEAKAEAPEEEEEEAAEEEGEGGEEAEEEGEEGEEAKEEEAEEEGGQEKEEEGEEGEGEAEAEGDGEEEGESKGDEAAEEESEKKEKKK
For the molecule B2, the binding result in assay [2] is reported as “no binding”.

B3: Flag-Alix (protein, UniProt Q9W6C5-1 1-867)
chain: MATFISVPLKKTSEVDLVKPLSKYIHNTYPSGEDQTEYCRAVDELNKLRKSAVGRPLDKHETSLETVMRYYDQLCSVEPKFPFTESQLCLTFTWKDAFDKGSIFGGSVKLALPSLGYEKTCVLFNIGALASQIASEQNLDNDEALKAASKFYQLASGAFSHIKDTVLSSLNRDPTVDISPDTVGTLSLIMLAQAQEVFFLKATRDKMKDAVIAKLANQAADYYGDAFKQCQYKDTLSKEVFPILAAKHCIMQAHAEYHQSVLAKQQKKFGEEIGRLQHASDLVKTVSSRYDEYVNVKDLADKINRALTAAKKDNDFIYHDRVPDLKDLDPVGKASLVKSTPVNVPLSQKYTDLFEKMVPLAVQQCLSVYNQRKSELINSTIAQMRDATIFANGVLASLNLPAAVEDVSGDSIPQSILNKSKTVIEQGGIQTIGQLIRDLPELLQRNKEILEESLKFLDEEEATDNDLKAKFKDRWQRTPSTELYKPLRSEGSNFRNVLDKAIGADAVVKERYQSHREAIVILCKPEAELNAAIPSANPAKTMQGSEVVTVLKSLLNKLDDMKKEREQLENDIKSVNFDMTTKFLTALAQDGAVNEEAISVTELDQIYGSYTYKVQENLKKQEDLLNNIQSAHQEFSKMKQSNSEANLREEVLKNLAVGHDNYIELVANLKEGTKFYNDLTDILLKFQCKCSDIVFARKTERDELLKDIQQSIAREPSAPSIPQVPSYQSAPSSISTNIATSSIPTPAPRTVFSAKQPPPRPPPPAMPSASPVPASAAQASNPAPTAAADSSQPPSNTIPSQAQGPPYPSYPGYPGYYGMPMPVGYNPYMYGQQTIPPYMYQPPSGQPPYPAQQPSFSYPQQPFFPPQ
As for B3, the binding result in assay [3] is reported as “binds”.
